Measured values as given in PMC12040169 (PLOS Biology, 2025).
The list shows a part of the results.

Tested on: T1, CTL2-GFP (C. trachomatis L2/434/Bu, GFP-expressing)
T1 construct: L2/434/Bu, GFP-expressing
Design: species or system HeLa; Intracellular C. trachomatis growth in HeLa cells, bulk GFP fluorescence relative to DMSO
Conditions: bulk GFP, single well; 28.5 h, 10 µM; inhibitor

SMILES	% of control remaining
Nc1cc(=O)[nH]c(=O)n1CCc1ccccc1 [CBK269984]	133.204%
COc1cccc(NC(=O)CC(CN2CCN(c3ccccc3)CC2)C(=O)O)c1 (centres unmarked) [CBK286789]	130.901%
C=CCN1C(=O)C2(CC(=O)N(CC(=O)N(C)C)C2=O)c2cc(OC)ccc21 (centres unmarked) [CBK075227]	115.8%
CN1CCC(N(C)C(=O)NCc2ccc(Cl)c(Cl)c2)C1 (centres unmarked) [CBK155996]	100%
CC(C)N1CCC(N(C)Cc2nc3ccccc3[nH]2)CC1 [CBK283021]	122.14%
COc1ccc2[nH]c3c(c2c1)CCN(CCc1ccc(F)cc1)C3 [CBK082819T]	143.143%
Cc1nc2ccc(NC(=O)N3CCC(c4ccccc4)C3)cc2s1 (centres unmarked) [CBK266512]	150.527%
Cc1nccn1CCCn1cncc1-c1ccc2c(c1)CCC(C)N2C (centres unmarked) [CBK281811]	131.373%
Oc1cccnc1SCc1nc2ccccc2s1 [CBK016367]	92.7756%
COc1ccc2[nH]c3c(c2c1)CCOC31CCN(CCC(F)=C(F)F)CC1 [CBK040118]	71.603%
Cn1c(CN2CCN(C(=O)Nc3ccccc3)CC2)nc2cc([N+](=O)[O-])ccc21 [CBK268260]	108.893%
Oc1cc(C(F)(F)F)nc(CCc2ccc(Cl)cc2)n1 [CBK003678]	86.1131%
COc1cc(-c2cc(Nc3ccc(N(C)C)cc3)ncn2)cc(OC)c1OC [CBK090945]	91.1444%
O=C(N/N=C/c1ccccc1O)c1ccn(Cc2ccc(Cl)cc2)n1 [CBK262770]	91.0017%
O=C(N[C@H]1C2CCCCC2[C@@H]1c1ccccc1)c1cncnc1 (some centres unmarked) [CBK282949]	134.543%
OCCCNCC(O)CN1c2ccccc2Sc2ccccc21 (centres unmarked) [CBK027632G]	108.689%
Cc1cc(S(=O)(=O)N2CCCC2)ccc1OCC(=O)NCc1ccncc1 [CBK269886]	123.335%
Cc1ccnc(N2C(=O)c3ccc(C(=O)c4ccc5c(c4)C(=O)N(c4cc(C)ccn4)C5=O)cc3C2=O)c1 [CBK263041]	101.151%
O=S(=O)(Nc1cccc2[nH]ccc12)c1ccc(Br)cc1F [CBK153547]	109.234%
O=C1CC(SCc2nc3ccccc3[nH]2)C(=O)N1c1cccc(Cl)c1 (centres unmarked) [CBK266731]	180.162%
COc1ccc(-c2cc(=O)[nH]c(N3CCN(C)CC3)n2)cc1 [CBK003849]	76.2505%
COc1ccc(CCNC(=O)CCn2cncn2)cc1 [CBK305881]	110.168%
O=C(O)/C=C/c1cccc(/C=C/C(=O)O)c1 [CBK261650]	100%
COc1cc(-c2cncc(Nc3cccc(C(F)(F)F)c3)n2)cc(OC)c1OC [CBK065213]	107.426%
O=[N+]([O-])c1ccc(Oc2ccccc2F)cc1 [CBK002532]	117.491%
CC(=O)NC(CC(=O)N1CCc2sccc2C1C)c1ccc(C)cc1 (centres unmarked) [CBK305378]	121.428%
COCCn1cc(C(=O)N2CCCC2c2ccncc2)c2ccccc21 (centres unmarked) [CBK305286]	102.28%

Two of the compounds above, bar-delimited:
SMILES | % of control remaining
O=S(=O)(Nc1cccc2[nH]ccc12)c1ccc(Br)cc1F [CBK153547] | 109.234%
O=C1CC(SCc2nc3ccccc3[nH]2)C(=O)N1c1cccc(Cl)c1 (centres unmarked) [CBK266731] | 180.162%

More records follow:

SMILES	% of control remaining
O[C@H]1[C@H](NCc2ccco2)[C@H]2CO[C@H](O2)[C@@H]1N1CCCCC1 [CBK288825]	122.461%
O=C(NC(=S)Nc1ccc(-c2nc3ncccc3o2)cc1)c1ccc2c(c1)OCCO2 [CBK265812]	142.622%
O=C(C1CC2C=CC1C21CC1)N1CCC(Oc2ccccc2F)CC1 (centres unmarked) [CBK282179]	119.068%
O=C(c1ccccc1NS(=O)(=O)c1ccc(C(F)(F)F)cc1[N+](=O)[O-])N1CCOCC1 [CBK043353]	116.868%
CCOC(=O)CCCNC(=O)N1CCN(c2ccccc2)CC1 [CBK155209]	123.472%
Cc1ccc(C(CC(=O)O)NC(=O)c2ccc(S(=O)(=O)N3CCCC(C)C3)cc2)cc1 (centres unmarked) [CBK295345]	137.504%
Cc1noc(C)c1NC(=O)Cc1cccnc1 [CBK200391]	95.5556%
Cc1c(S(=O)(=O)Nc2cccc(C(=O)OCC3CCCN(C)C3)c2)sc2ccc(Cl)cc12 (centres unmarked) [CBK167735G]	133.26%
CN(C)c1ccc(CCNS(=O)(=O)c2ccc3[nH]c(=O)[nH]c(=O)c3c2)cc1 [CBK285938]	114.433%
Cc1cc2c(cc3c(=O)n(CC(=O)N4CCCCCC4)nc(C)n32)o1 [CBK283591]	127.831%
Cc1ccc(N2CC(c3nnc(N)o3)CC2=O)cc1 (centres unmarked) [CBK288061]	131.761%
CC(C)(C)c1cn2c3ccccc3nc2n1CCN1CCOCC1 [CBK278252C]	107.22%
COc1cccc(CN2CCN(C(=O)c3ccco3)[C@@H](C)C2)c1 [CBK284267]	108.492%
CC(C)(C)C(=O)N1CCC(n2nc(-c3cccs3)ccc2=O)CC1 [CBK284182]	160.344%
CCN(CC)C(=O)CN1CCC(Oc2cncc(OCc3ccc(Cl)c(Cl)c3)n2)C1 (centres unmarked) [CBK084431]	90.8843%
CCN(Cc1cccc(C(=O)O)c1)Cc1noc(C2CCC2)n1 [CBK307708]	157.06%
CCc1c(O)c2ccccc2n(Cc2ccccc2)c1=O [CBK219367]	110.135%
CCCC(=O)Nc1ccc(OCc2ncc(C(C)C)o2)c(C(C)=O)c1 [CBK305516]	119.273%
COc1ccc(-n2cc(-c3ccccc3C(F)(F)F)nn2)cc1OC [CBK112965]	111.413%
Cc1ccccc1OCC(=O)NN1CCN(C)CC1 [CBK265783C]	119.398%
COc1ccc2c(c1)C1(Nc3ccccc3C(=O)N1c1ccccc1)C(=O)N2 (centres unmarked) [CBK103747]	78.3721%
O=C(O)c1c(Cl)c(C(=O)O)c(C(=O)O)c(Cl)c1C(=O)O [CBK261177]	105.205%
S=c1n(CN2CCC3(CC2)OCCO3)nc(-c2ccccc2Cl)n1-c1ccccc1 [CBK265222]	97.1511%
CCCNC(=O)NCCc1cccs1 [CBK043675]	168.478%
CC(=O)NC(=S)Nc1ccc(Oc2ccccc2)cc1 [CBK288454]	120.103%
COc1ccccc1N1CCN(C(=O)c2ccccc2C(=O)c2ccccc2)CC1 [CBK091506]	111.643%
COc1ccccc1CC(=O)N1CCCC1c1nc2ccccc2[nH]1 (centres unmarked) [CBK285517]	111.459%

SMILES	% of control remaining
O=C(Nc1ccc2nsnc2c1NC(=O)c1ccc2nsnc2c1)c1ccc2nsnc2c1 [CBK264309]	127.762%
CC1=C(C)C(=NNC(N)=S)C(C)=C(C)C1=NNC(N)=S [CBK261262]	17.1685%
CN(C)CCNc1c2c(nc3ccccc13)CCC2 [CBK263732C]	112.272%
CNC(=O)c1ccc(NC(=O)N2CCCCC2c2ccnn2C)cc1 (centres unmarked) [CBK305521]	102.699%
O=c1c(N2CCN(CCOc3ccccc3)CC2)nccn1CCOc1cc(F)c(F)cc1F [CBK045934C]	128.49%
Cc1ccccc1C(NC(=O)C1CCN(C(=O)NCCc2ccccc2)CC1)c1ncccc1C (centres unmarked) [CBK060409]	111.286%
Oc1cccc2ccc(-n3ccnc3)nc12 [CBK017812]	173.918%
Cn1cc(C2CCCCCN2C(=O)c2nn(C)cc2Cl)cn1 (centres unmarked) [CBK284972]	127.186%
O=C(CSc1nc(N2CCOCC2)nc(N2CCOCC2)n1)c1ccc([N+](=O)[O-])cc1 [CBK269107]	119.757%
COc1ccc(O)c(-c2c(-c3ccc(C)cc3)n[nH]c2C)c1 [CBK287961]	123.11%
CCNc1cncc(-c2ccccc2)n1 [CBK065847]	162.387%
O=C(/C=C/C=C/c1ccccc1)CC1(O)C(=O)N(Cc2cccc3ccccc23)c2ccccc21 (centres unmarked) [CBK264744]	117.671%
CCC1CCCCN1C(=O)c1cc2ccccc2o1 (centres unmarked) [CBK078549]	106.222%
O=C(NC1CCCCC1)c1csc(-c2ccncc2)n1 [CBK288591]	122.75%
O=C1C2(c3ccccc3)CN(CCCO)CC1(c1ccccc1)CN(CCCO)C2 [CBK265912]	114.414%
N#Cc1ccc(S(=O)(=O)N2CCC(OCc3ccncc3)C2)cn1 (centres unmarked) [CBK305478]	111.545%
CC(C)(N)CNC(=O)c1cc(C(C)(C)C)nn1Cc1ccc(Cl)cc1Cl [CBK107296]	34.953%
OCCCNc1cc(Nc2ccccc2)n2nccc2n1 [CBK037078]	155.838%
CCN(C)c1c(C)nc2c(OCc3ccccc3C(=O)OC)cccn12 [CBK147321]	110.875%
CC(=O)NCC(=O)N1CCC2(C/C=C/CNC(=O)c3ccccc3OCCNC2=O)CC1 [CBK292006]	117.855%
COc1ccccc1C(=O)Nc1ccc(Cl)c(C(=O)O)c1 [CBK287034]	154.343%
CC1(C#N)CCCN(Cc2c[nH]nc2C(=O)O)C1 (centres unmarked) [CBK307010]	145.52%
COc1ccc(/C=C/C2=CCN(C)CC2)cc1Cn1cccn1 [CBK283859]	122.201%
O=C(O)CCn1cc(Br)c([N+](=O)[O-])n1 [CBK286916]	109.331%
Cc1ccccc1COc1cccc(Cl)c1Cl [CBK002607]	116.271%
Cc1cc2c(o1)c1cnn(CC(=O)N3CCCCCC3)c(=O)c1n2C [CBK284219]	164.466%
